From patent US20250215059A1
These are yes or no findings as the source states them, for the method shown. Some binding calls cover weakened binding; strength is not graded here. Each block holds one binder with its values, some of them ahead of it.

Assays:
[1] = molecular target: tau aggregates in HEK293 tau biosensor cells (4R repeat domain of tau (K18) with the P301S mutation fused to CFP or YFP, seeded with clarified tau mouse brain homogenate) (UniProt P10636); experiment: Halo imaging
[2] = molecular target: tau aggregates in HEK293 tau biosensor cells (4R repeat domain of tau (K18) with the P301S mutation fused to CFP or YFP, seeded with clarified tau mouse brain homogenate) (UniProt P10636); experiment: Halo imaging (FIG. 7C)
[3] = molecular target: tau aggregates in HEK293 tau biosensor cells (4R repeat domain of tau (K18) with the P301S mutation fused to CFP or YFP, seeded with clarified tau mouse brain homogenate) (UniProt P10636); experiment: Halo imaging in HEK293 tau biosensor cells
[4] = molecular target: tau aggregates in HEK293 tau biosensor cells (4R repeat domain of tau (K18) with the P301S mutation fused to CFP or YFP, seeded with clarified tau mouse brain homogenate) (UniProt P10636); experiment: fold enrichment of Halo signal in cytoplasmic tau aggregates, immunofluorescence, against the Halo-only form
[5] = molecular target: tau aggregates in HEK293 tau biosensor cells (4R repeat domain of tau (K18) with the P301S mutation fused to CFP or YFP, seeded with clarified tau mouse brain homogenate) (UniProt P10636); experiment: fold enrichment of Halo signal in cytoplasmic tau aggregates, immunofluorescence, against the untargeted Halo fusion
[6] = molecular target: tau aggregates in HEK293 tau biosensor cells (4R repeat domain of tau (K18) with the P301S mutation fused to CFP or YFP, seeded with clarified tau mouse brain homogenate) (UniProt P10636); experiment: fold enrichment of Halo signal in cytoplasmic tau aggregates, immunofluorescence, against FAF2-Halo

B2: SRRM2 C-terminus-halo (protein)
chain: SRCLIAQTTPVAGSQSLSSGAVATTTSSAGDHNGMLSVPAPGVPHSDVGEPPASTGAQQPSALAALQPAKERRSSSSSSSSSSSSSSSSSSSSSSSSSGSSSSDSEGSSLPVQPEVALKRVPSPTPAPKEAVREGRPPEPTPAKRKRRSSSSSSSSSSSSSSSSSSSSSSSSSSSSSSSSSSSSSSSSSSPSPAKPGPQALPKPASPKKPPPGERRSRSPRKPIDSLRDSRSLSYSPVERRRPSPQPSPRDQQSSSSERGSRRGQRGDSRSPSHKRRRETPSPRPMRHRSSRSPMAEIGTGFPFDPHYVEVLGERMHYVDVGPRDGTPVLFLHGNPTSSYVWRNIIPHVAPTHRCIAPDLIGMGKSDKPDLGYFFDDHVRFMDAFIEALGLEEVVLVIHDWGSALGFHWAKRNPERVKGIAFMEFIRPIPTWDEWPEFARETFQAFRTTDVGRKLIIDQNVFIEGTLPMGVVRPLTEVEMDHYREPFLNPVDREPLWRFPNELPIAGEPANIVALVEEYMDWLHQSPVPKLLFWGTPGVLIPPAEAARLAKSLPNCKAVDIGPGLNLLQEDNPDLIGSEIARWLSTLEISG
binding [4]: binds

B3: 42-polyserine-TNPO3-halo (protein)
chain: MEGAKPTLQLVYQAVQALYHDPDPSGKERASFWLGELQRSVHAWEISDQLLQIRQDVESCYFAAQTMKMKIQTSFYELPTDSHASLRDSLLTHIQNLKDLSPVIVTQLALAIADLALQMPSWKGCVQTLVEKYSNDVTSLPFLLEILTVLPEEVHSRSLRIGANRRTEIIEDLAFYSSTVVSLLMTCVEKAGTDEKMLMKVFRCLGSWFNLGVLDSNFMANNKLLALLFEVLQQDKTSSNLHEAASDCVCSALYAIENVETNLPLAMQLFQGVLTLETAYHMAVAREDLDKVLNYCRIFTELCETFLEKIVCTPGQGLGDLRTLELLLICAGHPQYEVVEISFNFWYRLGEHLYKTNDEVIHGIFKAYIQRLLHALARHCQLEPDHEGVPEETDDFGEFRMRVSDLVKDLIFLIGSMECFAQLYSTLKEGNPPWEVTEAVLFIMAAIAKSVDPENNPTLVEVLEGVVRLPETVHTAVRYTSIELVGEMSEVVDRNPQFLDPVLGYLMKGLCEKPLASAAAKAIHNICSVCRDHMAQHFNGLLEIARSLDSFLLSPEAAVGLLKGTALVLARLPLDKITECLSELCSVQVMALKKLLSQEPSNGISSDPTVFLDRLAVIFRHTNPIVENGQTHPCQKVIQEIWPVLSETLNKHRADNRIVERCCRCLRFAVRCVGKGSAALLQPLVTQMVNVYHVHQHSCFLYLGSILVDEYGMEEGCRQGLLDMLQALCIPTFQLLEQQNGLQNHPDTVDDLFRLATRFIQRSPVTLLRSQVVIPILQWAIASTTLDHRDANCSVMRFLRDLIHTGVANDHEEDFELRKELIGQVMNQLGQQLVSQLLHTCCFCLPPYTLPDVAEVLWEIMQVDRPTFCRWLENSLKGLPKETTVGAVTVTHKQLTDFHKQVTSAEECKQVCWALRDFTRLFRGTELGSTSPVWWNSADISSSSSSSSSSSSSSSSSSSSSSSSSSSSSSSSSSSSSSSSSSGGSGGSGGGSEIGTGFPFDPHYVEVLGERMHYVDVGPRDGTPVLFLHGNPTSSYVWRNIIPHVAPTHRCIAPDLIGMGKSDKPDLGYFFDDHVRFMDAFIEALGLEEVVLVIHDWGSALGFHWAKRNPERVKGIAFMEFIRPIPTWDEWPEFARETFQAFRTTDVGRKLIIDQNVFIEGTLPMGVVRPLTEVEMDHYREPFLNPVDREPLWRFPNELPIAGEPANIVALVEEYMDWLHQSPVPKLLFWGTPGVLIPPAEAARLAKSLPNCKAVDIGPGLNLLQEDNPDLIGSEIARWLSTLEISG
binding [5]: binds

Continued, values first:

binding [1]: binds
binding [2]: binds
binding [3]: binds
B1: PNN C-terminus-halo (protein)
chain: MSKSRSRSSSSSSSSSSSTSSSSGSSSSSGSSSSRSSSSSSSSTSGSSSRDSSSSTSSSSESRSRSRMAEIGTGFPFDPHYVEVLGERMHYVDVGPRDGTPVLFLHGNPTSSYVWRNIIPHVAPTHRCIAPDLIGMGKSDKPDLGYFFDDHVRFMDAFIEALGLEEVVLVIHDWGSALGFHWAKRNPERVKGIAFMEFIRPIPTWDEWPEFARETFQAFRTTDVGRKLIIDQNVFIEGTLPMGVVRPLTEVEMDHYREPFLNPVDREPLWRFPNELPIAGEPANIVALVEEYMDWLHQSPVPKLLFWGTPGVLIPPAEAARLAKSLPNCKAVDIGPGLNLLQEDNPDLIGSEIARWLSTLEISG

binding [6]: binds
B4: FAF2-42PS-Halo (protein)
chain: MAAPEERDLTQEQTEKLLQFQDLTGIESMDQCRHTLEQHNWNIEAAVQDRLNEQEGVPSVFNPPPSRPLQVNTADHRIYSYVVSRPQPRGLLGWGYYLIMLPFRFTYYTILDIFRFALRFIRPDPRSRVTDPVGDIVSFMHSFEEKYGRAHPVFYQGTYSQALNDAKRELRFLLVYLHGDDHQDSDEFCRNTLCAPEVISLINTRMLFWACSTNKPEGYRVSQALRENTYPFLAMIMLKDRRMTVVGRLEGLIQPDDLINQLTFIMDANQTYLVSERLEREERNQTQVLRQQQDEAYLASLRADQEKERKKREERERKRRKEEEVQQQKLAEERRRQNLQEEKERKLECLPPEPSPDDPESVKIIFKLPNDSRVERRFHFSQSLTVIHDFLFSLKESPEKFQIEANFPRRVLPCIPSEEWPNPPTLQEAGLSHTEVLFVQDLTDESSSSSSSSSSSSSSSSSSSSSSSSSSSSSSSSSSSSSSSSSSMAEIGTGFPFDPHYVEVLGERMHYVDVGPRDGTPVLFLHGNPTSSYVWRNIIPHVAPTHRCIAPDLIGMGKSDKPDLGYFFDDHVRFMDAFIEALGLEEVVLVIHDWGSALGFHWAKRNPERVKGIAFMEFIRPIPTWDEWPEFARETFQAFRTTDVGRKLIIDQNVFIEGTLPMGVVRPLTEVEMDHYREPFLNPVDREPLWRFPNELPIAGEPANIVALVEEYMDWLHQSPVPKLLFWGTPGVLIPPAEAARLAKSLPNCKAVDIGPGLNLLQEDNPDLIGSEIARWLSTLEISG
